{"source": "patent US20210236523A1", "about": "“P[…] FOR HEADACHE DISORDERS” (priority 2020, published 2021)", "key": {"[1]": {"test_system": "patients with migraine headache", "test": "Placebo-controlled cross-over study of a single low oral dose of psilocybin in migraine headache: headache diary burden", "format": "in vivo, human", "settings": "single oral dose 0.143 mg/kg", "from_the_text": "The purpose of this exploratory study was to investigate the effects of a single low dose of psilocybin in patients with migraine headache in a controlled experiment. Basic information was gathered to assist in the development of future studies considering the effects and mechanism of action of 5-HT2A receptor compounds in migraine and other headache disorders.\nThis study was registered on clinicaltrials.gov (NCT03341689) with approvals from the Human Studies Subcommittee of Veterans Affairs Connecticut Healthcare System (VACHS) and the Human Investigations Committee of Yale University School of Medicine. The study was conducted under an approved Investigational New Drug application (#124,874) with the US Food & Drug Administration, under a Schedule 1 license (author DCD). […]\nSubjects were instructed to maintain a headache diary starting two weeks before the first experimental session until two weeks after the second experimental session. Subjects documented every headache attack, migraine (with associated migrainous symptoms) or otherwise (without associated migrainous symptoms; not counted as a migraine attack). […] The abortive medications taken and their effects were also recorded in the diary. Only the 14 days prior to the first experimental session (baseline) and the 14 days after each experimental session (inclusive) were counted in the final analysis. […]"}, "[2]": {"test_system": "patients with migraine headache", "test": "Migraine study: acute physiologic and psychotropic effects and adverse events of drug administration", "format": "in vivo, human", "settings": "0.143 mg/kg oral", "procedure": "Blood pressure, heart rate, and peripheral oxygenation were measured at baseline and throughout experimental sessions. Acute headache pain and associated symptoms (if present) and drug effects (overall, anxiety/fear, sleepiness/sedation, nausea, joy/intense happiness, peace/harmony) were self-reported on a 0-3 scale (0=none, 1=minimal, 2=moderate, 3=definite) at baseline and throughout experimental sessions. Psychedelic effects were self-reported at the end of experimental sessions using the validated 5-Dimensional Altered States of Consciousness (5D-ASC) scale. Subjects were discharged from the NSU at 6 hours after capsule ingestion or once physiological and psychological drug effects had resolved. Only one subject remained in the NSU for an additional 60 minutes until drug effects resolved. Subjects were not allowed to drive themselves after experimental sessions. Emergency contacts, including 24-hour/7-day psychiatry services, were provided to all subjects.\nTelephone follow-up was performed the day after and weekly for two weeks after each experimental session, and at 2 and 3 months after the second experimental session.\nStatistical analyses were performed using SAS, version 9.4 (SAS Institute Inc., Cary, N.C.) and figures were produced with GraphPad Prism (GraphPad Software Inc., La Jolla, Calif.). All statistical tests were two-sided with an overall pre-hypothesis alpha threshold of 0.05. Measures of error are shown as standard error about the mean (SEM). The primary clinical outcome measure was change in weekly migraine days (WMD) from baseline. This and the secondary measures of migraine burden—changes from baseline in weekly migraine attacks (WMA), pain severity, light sensitivity severity, sound sensitivity severity, nausea/vomiting severity, attack-related functional impairment, and weekly migraine abortive use—were calculated and compared via paired t-test. The time to the next two migraine attacks were also compared between placebo and psilocybin via paired t test. Acute effects of drug administration on mean arterial pressure (MAP), heart rate, peripheral oxygenation, and general drug effects were analyzed via 2-way repeated measures ANOVA with post-hoc Fisher least significant difference (LSD) test (when the interaction existed). Psychotropic effects as measured by the 5D-ASC scale were calculated as a percent of the total possible score 21, 22, as well as the percent possible score of each of the scale's five dimensions—oceanic boundlessness (OBN), dread of ego dissolution (DED), visionary restructuralization (VRS), acoustic alterations (AUA), and vigilance reduction (VIR). Percent possible scores were then compared between placebo and psilocybin via paired t-test. […]"}, "cluster headache [3]": {"test_system": "cluster headache", "test": "Medication use survey of cluster headache patients", "design": "species or system human"}, "cluster headache [4]": {"test_system": "cluster headache", "settings": "Sewell, et al., 2006; Schindler et al., 2015; cited from earlier work"}}, "note": "For at least one compound, name, drawing or mass did not settle the structure.", "data": [{"smiles": "CN(C)CCc1c[nH]c2cccc(OP(=O)(O)O)c12", "note": "[psilocybin, 3-(2-dimethylaminoethyl)-1H-indol-4-yl] dihydrogen phosphate]", "values": [{"measurement": "effect on migraine attack duration vs placebo", "setting": "[1]", "value": "no significant differences"}, {"measurement": "effect on associated symptom (light sensitivity, sound sensitivity, nausea/vomiting) ratings vs placebo", "setting": "[1]; 0-3 VAS", "value": "no significant differences"}, {"measurement": "overall drug effects (self-reported 0-3 scale) vs placebo", "setting": "[2]; between 1 and 4 hours after capsule ingestion", "value": "significant change"}, {"measurement": "individual dimensions of the 5D-ASC scale vs placebo", "setting": "[2]; interaction P=0.0741", "value": "did not survive multiple comparisons to reveal significant differences"}, {"measurement": "feeling of peace/harmony (self-reported 0-3 scale) vs placebo", "setting": "[2]; only at 6 hours after capsule ingestion", "value": "significantly elevated over placebo"}, {"measurement": "drug x time interaction for sleepiness/sedation, anxiety/fear, nausea, and joy/intense happiness", "setting": "[2]; self-reported 0-3 scale", "value": "Significant interactions were lacking"}, {"measurement": "patient-reported clinical efficacy compared to conventional medications", "setting": "cluster headache [3]", "value": "greater clinical efficacy"}, {"measurement": "reported effects in cluster headache", "setting": "cluster headache [4]", "value": "stop acute cluster attacks, terminate cluster cycles, and induce and prolong remission from cluster headache"}]}]}
